Article doi:10.1101/2020.02.07.938712
Numbering of substitutions follows the chain as printed. Results are given in words; binding and its absence hold for the method and conditions named. For some of these results: Binding can be weak; no strength is given. For some of these results: Binding seen in cells or lysates may run through a third protein. For some of these results: Where a sequence is shown, tags or fusion partners need not be part of it.

Tests used:
[1] = biological target: T1, cYFP:ARR5^D87E (Arabidopsis thaliana) (UniProt Q9SB04); experiment: split reporter
T1 sequence: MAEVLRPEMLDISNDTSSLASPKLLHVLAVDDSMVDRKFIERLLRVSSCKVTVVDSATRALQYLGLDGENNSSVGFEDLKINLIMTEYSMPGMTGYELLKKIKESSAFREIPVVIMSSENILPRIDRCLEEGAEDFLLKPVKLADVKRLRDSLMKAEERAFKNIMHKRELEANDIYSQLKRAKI

[2] = biological target: T2, ARR16^D93E (Arabidopsis thaliana) (UniProt Q9SHC2); experiment: two-hybrid
T2 sequence: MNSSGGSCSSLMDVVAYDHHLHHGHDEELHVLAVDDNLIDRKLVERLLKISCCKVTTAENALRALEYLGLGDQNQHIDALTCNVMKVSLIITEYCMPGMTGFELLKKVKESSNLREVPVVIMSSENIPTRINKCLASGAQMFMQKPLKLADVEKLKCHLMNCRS

[3] = biological target: T3, ARR7 D→A version (Arabidopsis thaliana) (UniProt Q9ZWS7); experiment: two-hybrid
T3 sequence: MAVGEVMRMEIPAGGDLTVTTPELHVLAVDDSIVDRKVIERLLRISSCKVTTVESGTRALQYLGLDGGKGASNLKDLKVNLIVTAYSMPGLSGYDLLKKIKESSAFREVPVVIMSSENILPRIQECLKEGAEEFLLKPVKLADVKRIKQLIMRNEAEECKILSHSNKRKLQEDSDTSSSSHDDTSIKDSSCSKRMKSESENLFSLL

[4] = biological target: T4, ARR7^D85E (Arabidopsis thaliana) (UniProt Q9ZWS7); experiment: two-hybrid
T4 sequence: T3 sequence with A85E

[5] = biological target: T5, ARR5^D87E (Arabidopsis thaliana) (UniProt Q9SB04); experiment: two-hybrid
T5 sequence: T1 sequence

[6] = biological target: T6, ARR7 (Arabidopsis thaliana) (UniProt Q9ZWS7); experiment: two-hybrid
T6 sequence: T3 sequence with A85D

[7] = biological target: T7, ARR5^D87A (Arabidopsis thaliana) (UniProt Q9SB04); experiment: two-hybrid
T7 sequence: T1 sequence with E87A

[8] = biological target: T8, ARR5 (Arabidopsis thaliana) (UniProt Q9SB04); experiment: two-hybrid
T8 sequence: T1 sequence with E87D

| binding [1] | binding [2] | binding [3] | binding [4] | binding [5] | binding [6] | binding [7] | binding [8] | Substance |
| --- | --- | --- | --- | --- | --- | --- | --- | --- |
| binds |  |  |  |  |  |  |  | nYFP:EXO70D3 (Arabidopsis thaliana) |
|  | no binding | no binding | no binding | binds | no binding | no binding |  | EXO70D3 (Arabidopsis thaliana) |
|  | no binding | no binding | no binding | binds | no binding | no binding | no binding | EXO70D2 (Arabidopsis thaliana) |
|  | binds weakly |  | binds | binds |  | binds | binds | EXO70D1 (from UniProt Q9C9E5) |
